Test results published in US20210061876A1, “T CELL RECEPTORS FOR TUMOR SPECIFIC PROTEASOME SPLICE VARIANTS AND USES THEREOF” (Max-Delbrück-Centrum für Molekulare Medizin in der …, priority 2017, published 2021).

Tested on: human 20S standard and immunoproteasome
Assay: In vitro generation of spliced peptides from synthetic mutKras G12V polypeptides by purified 20S proteasomes
Format: biochemical
Settings: standard proteasome and immunoproteasome; mass spectrometry

KLVVGAVGV
in vitro generation by 20S proteasomes: efficient in vitro generation

KLVVVAVGV
in vitro generation by 20S proteasomes: generated in vitro by both 20S proteasome subtypes

KLVVVGVGV
in vitro generation by 20S proteasomes: generated in vitro by both 20S proteasome subtypes
